These are yes or no findings as the source states them, for the method shown. A result given as binding can be weak or reduced; the word gives no strength.
Molecular target: PpATG3 (Physcomitrella patens)
Assay: two-hybrid; yeast two-hybrid (Clontech); PpATG3 in the bait vector pGBKT7 (BD), PpATG7 or PpATG12 in the prey vector pGADT7 (AD)

binding | Substance
binds | PpATG7 (from UniProt A0A2K1IFZ5) (enzyme)
binds | PpATG12 (from UniProt A9SPY8)

From paper PMC7513309
